According to patent US20060104903A1, “Model for evaluating the efficacy of locally applied antiproliferatives or other agents on neointimal hyperplasia, immunohistochemical and vascular cell cycle changes in balloon-injured rat carotid arteries” (priority 2004, published 2006):
At least one structure is not confirmed: it was looked up by name or label, or the drawing left a doubt.

Assays:
Type in all cases: in vivo
[1] = system: balloon-injured rat carotid artery; assay: Vascular wall cell cycle and apoptotic nuclei in injured rat carotid artery, flow cytometry (propidium iodide); details: 200 μg in pluronic gel suspension, perivascular, seven days post injury
Description: (§1) The delivery vehicle may comprise any suitable device. In the exemplary embodiment, the delivery vehicle comprises silastic tubing as illustrated in FIG. 1. The silastic tubing 300 is about 10 mm long with an outside diameter of about 1.5 mm. The total luminal volume, based upon emperical measurement, is about 20 μL. It is important to note that the silastic tubing 300 may comprise any suitable length. The length of the tubing is determined by the amount of artery resected. The silastic tubing may comprise a notch 302 on one end to facilitate placement thereof over the carotid artery. The silastic tubing is then autoclaved prior to surgery. The silastic tubing is filled with about 20 μL of the pluronic gel comprising a suspension, solution or combination suspension and solution of test agent. The pluronic gel formulation to be encased within the silastic tubing is dispersed into the silastic tubing utilizing a 20 μL adjustable pipette with a sterile tip. The pluronic vehicle or pluronic drug solution remains on ice until immediately before pipetting and dispensing into the silastic tubing.
(§2) The next step in the process comprises the surgical procedure. The rat is anesthetized prior to surgical intervention. The rat may be anesthetized utilizing any number of anesthetizing agents, both inhalational and/or injectable. […]

[2] = system: balloon-injured rat carotid artery; assay: Neointimal hyperplasia in balloon-injured rat carotid artery, histomorphometric analysis after perivascular delivery
Description: as §1, §2

[3] = system: balloon-injured rat carotid artery; assay: Cell proliferation in injured rat carotid artery, PCNA immunohistochemistry; details: 200 μg in pluronic gel suspension, perivascular, seven days post injury
Description: as §1, §2

SMILES: CO[C@H]1C[C@@H]2CC[C@@H](C)[C@@](O)(O2)C(=O)C(=O)N2CCCC[C@H]2C(=O)O[C@H]([C@H](C)C[C@@H]2CC[C@@H](O)[C@H](OC)C2)CC(=O)[C@H](C)/C=C(\C)[C@@H](O)[C@@H](OC)C(=O)[C@H](C)C[C@H](C)/C=C/C=C/C=C/1C [sirolimus]
- percentage nuclei in the G0/G1 phases [1]: restores
- percentage nuclei in the S and G2/M phases [1]: reducing
- neointima formation (FIG. 3 slides) ([2]; 200 μg in pluronic gel, perivascular administration): substantial reduction
- neointimal formation (FIG. 2) ([2]; perivascular application): significantly reduced
- neointimal proliferation (PCNA labeling) [3]: significantly reduce
